Test results published in patent US20170189504A1, “NOVEL PEPTIDES AND COMBINATION OF PEPTIDES FOR USE IN IMMUNOTHERAPY AGAINST VARIOUS CANCERS” (immatics biotechnologies GmbH, priority 2015, published 2017).
For some assays here: Expression values are those of the mRNA of the gene that encodes the peptide; a gene is named only where it was looked up.

Tests used:
[1] = tested on: source genes (mRNA); test: Gene and exon expression of source genes, TCGA tumor samples compared with normal tissue samples (Lonsdale, 2013) (Table 17); set-up: species or system human; conditions: for Target coverage: over-expression category of source gene, LAML: Acute Myeloid Leukemia (N = 173); for Target coverage: over-expression category of source gene, LAML / Target coverage: over-expression category of source gene, BLCA / Target coverage: over-expression category of source gene, CHOL / Target coverage: over-expression category of source gene, KIRC / Target coverage: over-expression category of source gene, READ / Target coverage: over-expression category of source gene, COAD / Target coverage: over-expression category of source gene, ESCA / Target coverage: over-expression category of source gene, GBM / Target coverage: over-expression category of source gene, KICH / Target coverage: over-expression category of source gene, LIHC / Target coverage: over-expression category of source gene, LGG / Target coverage: over-expression category of source gene, LUAD / Target coverage: over-expression category of source gene, LUSC / Target coverage: over-expression category of source gene, DLBC / Target coverage: over-expression category of source gene, OV / Target coverage: over-expression category of source gene, PAAD / Target coverage: over-expression category of source gene, KIRP / Target coverage: over-expression category of source gene, PRAD / Target coverage: over-expression category of source gene, SKCM / Target coverage: over-expression category of source gene, STAD / Target coverage: over-expression category of source gene, UCEC: cutoff more than 2-fold above highest 75% percentile of normal tissue samples; for Target coverage: over-expression category of source gene, BLCA: Bladder urothelial carcinoma (N = 408); for Target coverage: over-expression category of source gene, BRCA: Breast cancer (N = 1104), cutoff more than 2-fold above highest 75% percentile of high and medium risk normal tissue samples; for Target coverage: over-expression category of source gene, CHOL: Cholangiocarcinoma (N = 36); for Target coverage: over-expression category of source gene, KIRC: Clear cell kidney carcinoma (N = 534); for Target coverage: over-expression category of source gene, READ: Colon and rectal adenocarcinoma (N = 167); for Target coverage: over-expression category of source gene, COAD: Colon and rectal adenocarcinoma (N = 462); for Target coverage: over-expression category of source gene, ESCA: Esophageal cancer (N = 185); for Target coverage: over-expression category of source gene, GBM: Glioblastoma multiforme (N = 169); for Target coverage: over-expression category of source gene, KICH: Kidney chromophobe (N = 66); for Target coverage: over-expression category of source gene, LIHC: Liver hepatocellular carcinoma (N = 374); for Target coverage: over-expression category of source gene, LGG: Lower grade glioma (N = 534); for Target coverage: over-expression category of source gene, LUAD: Lung adenocarcinoma (N = 517); for Target coverage: over-expression category of source gene, LUSC: Lung squamous cell carcinoma (N = 503); for Target coverage: over-expression category of source gene, DLBC: Lymphoid neoplasm diffuse large B-cell lymphoma (N = 48); for Target coverage: over-expression category of source gene, OV: Ovarian serous cystadenocarcinoma (N = 309); for Target coverage: over-expression category of source gene, PAAD: Pancreatic ductal adenocarcinoma (N = 179); for Target coverage: over-expression category of source gene, KIRP: Papillary kidney carcinoma (N = 291); for Target coverage: over-expression category of source gene, PRAD: Prostate adenocarcinoma (N = 498); for Target coverage: over-expression category of source gene, SKCM: Skin cutaneous melanoma (N = 473); for Target coverage: over-expression category of source gene, STAD: Stomach adenocarcinoma (N = 415); for Target coverage: over-expression category of source gene, UCEC: Uterine corpus endometrial carcinoma (N = 546)
[2] = tested on: HLA-A*02; test: Identification and relative LC-MS quantitation of HLA-A*02-presented tumor-associated peptides on tissue samples (presentation profiles, Tables 13A, 13B, 15, FIG. 1); set-up: species or system human; key to Presentation score NHL / Presentation score CLL / Presentation score BRCA / Presentation score AML / Presentation score GB / Presentation score NSCLC / Presentation score GBC_CCC / Presentation score UEC / Presentation score MEL / Presentation score OSCAR / Presentation score GC / Presentation score UBC / Presentation score OC / Presentation score RCC / Presentation score CRC / Presentation score PCA / Presentation score HCC / Presentation score PC / Presentation score SCLC: specifically presented on tumors (++++); very highly over-presented on tumors compared to a panel of normal tissues (+++); highly over-presented on tumors compared to a panel of normal tissues (++); over-presented on tumors compared to a panel of normal tissues (+); conditions: for Presentation score BRCA: breast cancer (N = 17) vs panel of normal tissues (N = 262); for Presentation score OC: ovarian cancer (N = 20) vs panel of normal tissues (N = 262); for Presentation score SCLC: small cell lung cancer (N = 19) vs panel of normal tissues (N = 262); for Peptide Presentation on cancer entities: HLA-A*02-binding tumor-associated peptides
[3] = Table 13A, cancer entities on which the peptide was found presented
[4] = Table 13B, presentation on additional cancer entities

Substance | Target coverage: over-expression category of source gene, LAML [1] | Target coverage: over-expression category of source gene, BLCA [1] | Target coverage: over-expression category of source gene, BRCA [1] | Target coverage: over-expression category of source gene, CHOL [1] | Target coverage: over-expression category of source gene, READ [1] | Target coverage: over-expression category of source gene, COAD [1] | Target coverage: over-expression category of source gene, ESCA [1] | Target coverage: over-expression category of source gene, KICH [1] | Target coverage: over-expression category of source gene, LGG [1] | Target coverage: over-expression category of source gene, LUAD [1] | Target coverage: over-expression category of source gene, LUSC [1] | Target coverage: over-expression category of source gene, DLBC [1] | Target coverage: over-expression category of source gene, OV [1] | Target coverage: over-expression category of source gene, PAAD [1] | Target coverage: over-expression category of source gene, KIRP [1] | Target coverage: over-expression category of source gene, PRAD [1] | Target coverage: over-expression category of source gene, SKCM [1] | Target coverage: over-expression category of source gene, STAD [1] | Target coverage: over-expression category of source gene, UCEC [1] | Peptide Presentation on cancer entities [2, 3] | further results
30: peptide found in OARD1 (gene looked up) (AMIEEVFEA; listed as Homo sapiens) [compound 30] | A (>=50% of tumors above the cutoff) | B (>= 20% of tumors above the cutoff, but <50%) | A (>=50% of tumors above the cutoff) | A (>=50% of tumors above the cutoff) | A (>=50% of tumors above the cutoff) | A (>=50% of tumors above the cutoff) | B (>= 20% of tumors above the cutoff, but <50%) | A (>=50% of tumors above the cutoff) | A (>=50% of tumors above the cutoff) | A (>=50% of tumors above the cutoff) | A (>=50% of tumors above the cutoff) | A (>=50% of tumors above the cutoff) | B (>= 20% of tumors above the cutoff, but <50%) | A (>=50% of tumors above the cutoff) | A (>=50% of tumors above the cutoff) | A (>=50% of tumors above the cutoff) | A (>=50% of tumors above the cutoff) | A (>=50% of tumors above the cutoff) | A (>=50% of tumors above the cutoff) | PCA, OC, SCLC, UBC, BRCA, MEL | Target coverage: over-expression category of source gene, KIRC [1]: A (>=50% of tumors above the cutoff); Target coverage: over-expression category of source gene, GBM [1]: A (>=50% of tumors above the cutoff); Target coverage: over-expression category of source gene, LIHC [1]: A (>=50% of tumors above the cutoff); Presentation score BRCA ([2]; HLA-A*02 peptides): +++; Presentation score MEL ([2]; HLA-A*02 peptides, melanoma (N = 7) vs panel of normal tissues (N = 262)): +++; Presentation score OC ([2]; HLA-A*02 peptides): +++; Presentation score PCA ([2]; HLA-A*02 peptides, prostate cancer and benign prostate hyperplasia (N = 39) vs panel of normal tissues (N = 262)): +++; Presentation score SCLC ([2]; HLA-A*02 peptides): +++; Presentation score UBC ([2]; HLA-A*02 peptides, urinary bladder cancer (N = 16) vs panel of normal tissues (N = 262)): +++; Peptide Presentation on cancer entities [2, 4]: NSCLC, HCC, UEC, GBC_CCC, NHL, HNSCC
66: peptide found in AACS (gene looked up) (KLIFSVEAV; listed as Homo sapiens) [compound 66] |  | C (>=5% of tumors above the cutoff, but <20%) | B (>= 20% of tumors above the cutoff, but <50%) | B (>= 20% of tumors above the cutoff, but <50%) | A (>=50% of tumors above the cutoff) | A (>=50% of tumors above the cutoff) | A (>=50% of tumors above the cutoff) | B (>= 20% of tumors above the cutoff, but <50%) | C (>=5% of tumors above the cutoff, but <20%) | B (>= 20% of tumors above the cutoff, but <50%) | B (>= 20% of tumors above the cutoff, but <50%) | C (>=5% of tumors above the cutoff, but <20%) | B (>= 20% of tumors above the cutoff, but <50%) | B (>= 20% of tumors above the cutoff, but <50%) | C (>=5% of tumors above the cutoff, but <20%) | B (>= 20% of tumors above the cutoff, but <50%) | C (>=5% of tumors above the cutoff, but <20%) | B (>= 20% of tumors above the cutoff, but <50%) | B (>= 20% of tumors above the cutoff, but <50%) | NSCLC, SCLC, UEC, BRCA | Presentation score BRCA ([2]; HLA-A*02 peptides): ++++; Presentation score NSCLC ([2]; HLA-A*02 peptides, non-small cell lung cancer (N = 90) vs panel of normal tissues (N = 262)): ++++; Presentation score SCLC ([2]; HLA-A*02 peptides): ++++; Presentation score UEC ([2]; HLA-A*02 peptides, uterine cancer (N = 15) vs panel of normal tissues (N = 262)): ++++; Peptide Presentation on cancer entities [2, 4]: OC, UBC, BRCA
89: peptide found in COG8 (gene looked up) (QLAPVFQRV; listed as Homo sapiens) [compound 89] | A (>=50% of tumors above the cutoff) | A (>=50% of tumors above the cutoff) | A (>=50% of tumors above the cutoff) | A (>=50% of tumors above the cutoff) | A (>=50% of tumors above the cutoff) | A (>=50% of tumors above the cutoff) | A (>=50% of tumors above the cutoff) | A (>=50% of tumors above the cutoff) | A (>=50% of tumors above the cutoff) | A (>=50% of tumors above the cutoff) | A (>=50% of tumors above the cutoff) | A (>=50% of tumors above the cutoff) | A (>=50% of tumors above the cutoff) | A (>=50% of tumors above the cutoff) | A (>=50% of tumors above the cutoff) | A (>=50% of tumors above the cutoff) | A (>=50% of tumors above the cutoff) | A (>=50% of tumors above the cutoff) | A (>=50% of tumors above the cutoff) | CLL, OC, NHL | Target coverage: over-expression category of source gene, KIRC [1]: A (>=50% of tumors above the cutoff); Target coverage: over-expression category of source gene, GBM [1]: A (>=50% of tumors above the cutoff); Target coverage: over-expression category of source gene, LIHC [1]: A (>=50% of tumors above the cutoff); Presentation score CLL ([2]; HLA-A*02 peptides, chronic lymphocytic leukemia (N = 17) vs panel of normal tissues (N = 262)): ++++; Presentation score NHL ([2]; HLA-A*02 peptides, non-Hodgkin lymphoma (N = 18) vs panel of normal tissues (N = 262)): ++++; Presentation score OC ([2]; HLA-A*02 peptides): ++++
